Results are given in words; binding and its absence hold for the method and conditions named. A result given as binding can be weak or reduced; the word gives no strength. Where a sequence is shown, tags or fusion partners need not be part of it.
Biological target: T1, CFAP161 (yeast two-hybrid fusion) (mouse) (UniProt Q6P8Y0)
T1 sequence: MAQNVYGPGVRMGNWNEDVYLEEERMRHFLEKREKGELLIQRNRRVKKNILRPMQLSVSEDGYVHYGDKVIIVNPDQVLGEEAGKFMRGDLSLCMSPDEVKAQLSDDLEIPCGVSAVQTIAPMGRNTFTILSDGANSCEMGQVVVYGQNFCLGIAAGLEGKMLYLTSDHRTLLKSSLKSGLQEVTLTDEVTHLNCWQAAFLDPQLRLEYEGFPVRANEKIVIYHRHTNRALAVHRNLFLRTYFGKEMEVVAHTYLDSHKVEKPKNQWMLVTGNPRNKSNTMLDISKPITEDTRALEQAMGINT
Assay: two-hybrid; Matchmaker Gold Yeast Two-Hybrid System (Clontech); details in Supplemental Methods

- binding: binds
Substance: KIAA0556 (yeast two-hybrid fusion)
